# Test results as given in PMC5841321.
# Chains of the proteins cited; added tags and fusions are not shown.
# UniProt O00425: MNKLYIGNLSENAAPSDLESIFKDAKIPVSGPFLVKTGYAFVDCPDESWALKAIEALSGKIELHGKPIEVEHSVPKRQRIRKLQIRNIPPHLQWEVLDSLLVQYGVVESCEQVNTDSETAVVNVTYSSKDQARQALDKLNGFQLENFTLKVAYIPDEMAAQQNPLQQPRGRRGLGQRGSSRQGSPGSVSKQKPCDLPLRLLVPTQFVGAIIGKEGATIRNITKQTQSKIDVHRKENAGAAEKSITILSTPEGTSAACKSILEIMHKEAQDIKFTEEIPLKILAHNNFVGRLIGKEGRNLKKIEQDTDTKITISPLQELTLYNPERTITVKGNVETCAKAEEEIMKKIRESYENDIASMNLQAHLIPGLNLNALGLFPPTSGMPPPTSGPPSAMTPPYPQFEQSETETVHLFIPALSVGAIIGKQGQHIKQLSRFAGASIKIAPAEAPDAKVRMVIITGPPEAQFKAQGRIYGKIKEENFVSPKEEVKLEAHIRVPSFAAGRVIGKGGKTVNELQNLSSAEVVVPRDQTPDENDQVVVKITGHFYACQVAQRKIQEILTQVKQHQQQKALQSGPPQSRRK
# UniProt P55036: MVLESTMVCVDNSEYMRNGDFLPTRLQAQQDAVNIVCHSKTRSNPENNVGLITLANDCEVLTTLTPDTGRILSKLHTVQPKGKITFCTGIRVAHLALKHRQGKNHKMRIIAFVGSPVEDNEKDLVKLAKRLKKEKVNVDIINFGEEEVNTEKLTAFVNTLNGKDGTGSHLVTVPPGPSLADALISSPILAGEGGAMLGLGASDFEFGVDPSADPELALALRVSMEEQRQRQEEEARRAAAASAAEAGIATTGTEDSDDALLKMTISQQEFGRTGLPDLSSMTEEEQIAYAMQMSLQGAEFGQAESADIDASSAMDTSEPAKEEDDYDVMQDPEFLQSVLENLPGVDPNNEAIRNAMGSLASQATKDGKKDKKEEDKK
# UniProt O75533: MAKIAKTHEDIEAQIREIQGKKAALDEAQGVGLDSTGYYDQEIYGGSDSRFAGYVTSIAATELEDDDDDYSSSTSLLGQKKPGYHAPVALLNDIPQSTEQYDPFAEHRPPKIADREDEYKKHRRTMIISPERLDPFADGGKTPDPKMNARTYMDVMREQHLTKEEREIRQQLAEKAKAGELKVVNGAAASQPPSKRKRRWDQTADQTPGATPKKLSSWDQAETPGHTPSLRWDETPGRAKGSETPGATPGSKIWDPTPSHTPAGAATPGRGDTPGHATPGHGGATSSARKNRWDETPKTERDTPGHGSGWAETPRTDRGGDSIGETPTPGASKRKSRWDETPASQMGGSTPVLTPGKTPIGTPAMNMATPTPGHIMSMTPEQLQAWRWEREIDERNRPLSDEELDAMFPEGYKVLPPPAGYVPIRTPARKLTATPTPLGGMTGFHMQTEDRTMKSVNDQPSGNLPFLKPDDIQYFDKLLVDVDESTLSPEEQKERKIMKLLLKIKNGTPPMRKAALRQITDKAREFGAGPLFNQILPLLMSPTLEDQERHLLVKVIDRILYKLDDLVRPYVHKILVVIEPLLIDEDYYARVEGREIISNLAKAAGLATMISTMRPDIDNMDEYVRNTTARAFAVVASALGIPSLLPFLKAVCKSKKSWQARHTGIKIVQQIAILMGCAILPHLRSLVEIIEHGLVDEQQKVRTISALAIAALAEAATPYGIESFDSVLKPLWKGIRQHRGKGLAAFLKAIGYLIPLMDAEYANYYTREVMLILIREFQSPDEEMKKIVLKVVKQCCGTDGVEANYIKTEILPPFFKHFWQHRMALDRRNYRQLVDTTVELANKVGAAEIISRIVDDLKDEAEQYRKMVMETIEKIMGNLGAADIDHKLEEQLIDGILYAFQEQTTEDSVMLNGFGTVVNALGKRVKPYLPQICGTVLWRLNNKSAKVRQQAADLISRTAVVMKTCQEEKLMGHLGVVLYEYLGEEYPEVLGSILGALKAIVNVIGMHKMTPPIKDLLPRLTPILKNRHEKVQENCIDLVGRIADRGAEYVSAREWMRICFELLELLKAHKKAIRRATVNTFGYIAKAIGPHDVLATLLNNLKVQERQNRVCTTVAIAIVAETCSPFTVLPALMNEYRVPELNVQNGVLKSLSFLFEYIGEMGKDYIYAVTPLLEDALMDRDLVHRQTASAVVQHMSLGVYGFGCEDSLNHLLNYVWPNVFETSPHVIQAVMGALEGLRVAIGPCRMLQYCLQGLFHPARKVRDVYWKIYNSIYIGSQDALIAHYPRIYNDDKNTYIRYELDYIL
# UniProt Q07955: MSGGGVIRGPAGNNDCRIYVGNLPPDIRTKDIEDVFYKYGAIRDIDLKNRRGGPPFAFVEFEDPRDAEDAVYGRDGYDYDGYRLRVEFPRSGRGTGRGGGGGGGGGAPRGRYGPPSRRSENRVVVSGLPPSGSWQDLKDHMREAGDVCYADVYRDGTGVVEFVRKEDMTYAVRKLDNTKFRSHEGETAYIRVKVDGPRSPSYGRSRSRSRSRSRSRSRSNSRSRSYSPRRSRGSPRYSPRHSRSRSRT
# UniProt O95793: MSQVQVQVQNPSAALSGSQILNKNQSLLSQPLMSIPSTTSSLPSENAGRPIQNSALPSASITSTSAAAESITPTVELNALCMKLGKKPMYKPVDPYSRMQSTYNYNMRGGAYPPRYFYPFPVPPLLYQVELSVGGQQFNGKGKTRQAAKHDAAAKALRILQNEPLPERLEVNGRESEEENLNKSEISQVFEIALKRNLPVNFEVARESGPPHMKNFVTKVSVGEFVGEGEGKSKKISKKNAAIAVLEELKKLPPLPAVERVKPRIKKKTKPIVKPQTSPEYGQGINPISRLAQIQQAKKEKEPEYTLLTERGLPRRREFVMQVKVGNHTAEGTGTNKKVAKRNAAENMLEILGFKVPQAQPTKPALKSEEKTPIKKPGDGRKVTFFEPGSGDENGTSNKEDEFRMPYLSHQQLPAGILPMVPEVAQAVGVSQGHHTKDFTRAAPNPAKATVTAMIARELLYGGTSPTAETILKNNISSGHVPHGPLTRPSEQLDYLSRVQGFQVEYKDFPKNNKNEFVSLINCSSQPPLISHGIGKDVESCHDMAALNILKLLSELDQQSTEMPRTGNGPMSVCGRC
# UniProt Q9Y262: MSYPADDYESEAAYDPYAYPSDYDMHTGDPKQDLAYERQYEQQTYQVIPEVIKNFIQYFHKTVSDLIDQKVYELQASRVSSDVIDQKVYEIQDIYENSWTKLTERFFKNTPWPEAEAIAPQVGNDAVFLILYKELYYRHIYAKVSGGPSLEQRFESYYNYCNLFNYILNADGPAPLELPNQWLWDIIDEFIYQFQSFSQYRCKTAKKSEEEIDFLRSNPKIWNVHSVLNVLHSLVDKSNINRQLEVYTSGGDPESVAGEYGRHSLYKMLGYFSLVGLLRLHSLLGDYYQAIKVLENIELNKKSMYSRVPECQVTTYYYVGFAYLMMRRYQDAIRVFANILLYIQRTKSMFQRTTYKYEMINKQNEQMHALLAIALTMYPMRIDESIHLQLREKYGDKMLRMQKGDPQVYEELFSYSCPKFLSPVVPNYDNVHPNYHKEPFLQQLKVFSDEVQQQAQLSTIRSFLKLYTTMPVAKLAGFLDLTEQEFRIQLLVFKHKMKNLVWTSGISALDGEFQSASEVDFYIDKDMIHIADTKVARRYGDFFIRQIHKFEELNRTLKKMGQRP
# UniProt Q7Z2W4: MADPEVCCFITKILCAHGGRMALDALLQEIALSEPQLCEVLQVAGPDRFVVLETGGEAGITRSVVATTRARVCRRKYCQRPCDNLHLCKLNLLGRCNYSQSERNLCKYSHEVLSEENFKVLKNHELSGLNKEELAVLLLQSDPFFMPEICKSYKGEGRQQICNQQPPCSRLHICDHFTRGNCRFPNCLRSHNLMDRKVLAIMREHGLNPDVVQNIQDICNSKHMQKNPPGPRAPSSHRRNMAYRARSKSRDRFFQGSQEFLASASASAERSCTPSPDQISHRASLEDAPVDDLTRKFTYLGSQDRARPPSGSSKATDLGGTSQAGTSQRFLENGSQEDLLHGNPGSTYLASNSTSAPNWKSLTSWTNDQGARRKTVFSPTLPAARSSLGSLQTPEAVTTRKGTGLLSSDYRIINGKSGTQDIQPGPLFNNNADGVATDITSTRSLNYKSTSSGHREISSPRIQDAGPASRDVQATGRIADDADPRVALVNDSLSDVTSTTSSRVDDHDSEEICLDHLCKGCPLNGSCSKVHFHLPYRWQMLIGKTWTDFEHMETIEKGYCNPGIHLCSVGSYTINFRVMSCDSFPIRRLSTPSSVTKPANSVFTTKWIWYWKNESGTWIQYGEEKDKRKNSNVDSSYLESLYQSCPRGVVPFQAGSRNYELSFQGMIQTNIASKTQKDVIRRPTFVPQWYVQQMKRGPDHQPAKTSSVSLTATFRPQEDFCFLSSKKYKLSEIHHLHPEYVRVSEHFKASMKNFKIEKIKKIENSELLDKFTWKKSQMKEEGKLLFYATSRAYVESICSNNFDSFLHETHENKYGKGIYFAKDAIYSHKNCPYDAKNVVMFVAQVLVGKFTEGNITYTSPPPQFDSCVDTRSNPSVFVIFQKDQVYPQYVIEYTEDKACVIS
# UniProt P62316: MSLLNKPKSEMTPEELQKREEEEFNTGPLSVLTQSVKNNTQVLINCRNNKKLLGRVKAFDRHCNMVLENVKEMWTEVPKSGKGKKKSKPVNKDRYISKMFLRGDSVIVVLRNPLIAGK
# UniProt Q15393: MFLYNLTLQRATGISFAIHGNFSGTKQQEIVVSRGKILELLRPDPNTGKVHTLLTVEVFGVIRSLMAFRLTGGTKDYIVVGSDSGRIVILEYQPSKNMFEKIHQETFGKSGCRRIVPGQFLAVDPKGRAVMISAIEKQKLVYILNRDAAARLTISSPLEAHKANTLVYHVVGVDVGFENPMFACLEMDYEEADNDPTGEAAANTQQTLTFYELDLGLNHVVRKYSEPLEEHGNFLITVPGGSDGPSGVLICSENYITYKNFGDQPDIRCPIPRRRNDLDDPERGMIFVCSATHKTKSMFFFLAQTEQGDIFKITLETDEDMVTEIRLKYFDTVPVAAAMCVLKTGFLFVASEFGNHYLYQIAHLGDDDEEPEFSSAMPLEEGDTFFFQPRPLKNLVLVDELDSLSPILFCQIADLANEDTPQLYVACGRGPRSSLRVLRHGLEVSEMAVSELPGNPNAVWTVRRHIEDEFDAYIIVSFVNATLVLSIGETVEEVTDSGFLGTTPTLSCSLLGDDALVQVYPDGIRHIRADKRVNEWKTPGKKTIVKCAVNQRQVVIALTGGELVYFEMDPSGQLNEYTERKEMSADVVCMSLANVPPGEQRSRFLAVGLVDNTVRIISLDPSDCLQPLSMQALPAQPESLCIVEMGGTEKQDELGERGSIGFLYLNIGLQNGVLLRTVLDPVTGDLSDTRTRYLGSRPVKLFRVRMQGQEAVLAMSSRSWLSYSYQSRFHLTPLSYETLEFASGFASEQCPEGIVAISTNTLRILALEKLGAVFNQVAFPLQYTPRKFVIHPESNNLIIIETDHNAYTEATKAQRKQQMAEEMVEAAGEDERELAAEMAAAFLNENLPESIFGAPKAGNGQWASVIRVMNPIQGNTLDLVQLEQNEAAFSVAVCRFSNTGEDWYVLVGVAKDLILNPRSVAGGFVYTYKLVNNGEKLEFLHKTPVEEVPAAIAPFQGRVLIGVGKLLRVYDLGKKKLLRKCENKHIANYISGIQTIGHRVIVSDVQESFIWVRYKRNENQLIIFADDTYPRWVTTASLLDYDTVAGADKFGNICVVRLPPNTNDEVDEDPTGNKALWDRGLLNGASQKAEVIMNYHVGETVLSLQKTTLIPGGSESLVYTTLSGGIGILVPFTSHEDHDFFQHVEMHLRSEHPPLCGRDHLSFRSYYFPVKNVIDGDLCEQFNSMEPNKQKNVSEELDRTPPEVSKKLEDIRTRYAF
# UniProt P54105: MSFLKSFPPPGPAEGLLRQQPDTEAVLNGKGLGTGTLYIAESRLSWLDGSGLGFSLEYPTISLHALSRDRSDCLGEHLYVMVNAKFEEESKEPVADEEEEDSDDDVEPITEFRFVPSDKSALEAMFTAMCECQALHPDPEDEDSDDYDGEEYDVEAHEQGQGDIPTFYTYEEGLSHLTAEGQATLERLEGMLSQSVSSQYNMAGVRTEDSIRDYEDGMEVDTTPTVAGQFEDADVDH
# UniProt P04350: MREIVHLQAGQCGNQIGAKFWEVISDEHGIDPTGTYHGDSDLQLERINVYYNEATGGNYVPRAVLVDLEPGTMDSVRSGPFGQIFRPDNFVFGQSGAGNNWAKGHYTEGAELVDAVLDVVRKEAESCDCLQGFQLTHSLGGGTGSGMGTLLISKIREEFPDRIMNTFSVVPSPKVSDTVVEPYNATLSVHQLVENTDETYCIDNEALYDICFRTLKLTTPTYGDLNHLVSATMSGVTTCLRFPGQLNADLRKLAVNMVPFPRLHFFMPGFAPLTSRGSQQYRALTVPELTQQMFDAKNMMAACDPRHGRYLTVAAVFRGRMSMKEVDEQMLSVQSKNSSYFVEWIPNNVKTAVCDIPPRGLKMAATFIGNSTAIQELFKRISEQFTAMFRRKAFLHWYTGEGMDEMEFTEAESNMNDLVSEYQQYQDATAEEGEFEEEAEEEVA
# Target: T1, E3 ubiquitin-protein ligase Midline-1 (UniProt O15344)
# T1 sequence: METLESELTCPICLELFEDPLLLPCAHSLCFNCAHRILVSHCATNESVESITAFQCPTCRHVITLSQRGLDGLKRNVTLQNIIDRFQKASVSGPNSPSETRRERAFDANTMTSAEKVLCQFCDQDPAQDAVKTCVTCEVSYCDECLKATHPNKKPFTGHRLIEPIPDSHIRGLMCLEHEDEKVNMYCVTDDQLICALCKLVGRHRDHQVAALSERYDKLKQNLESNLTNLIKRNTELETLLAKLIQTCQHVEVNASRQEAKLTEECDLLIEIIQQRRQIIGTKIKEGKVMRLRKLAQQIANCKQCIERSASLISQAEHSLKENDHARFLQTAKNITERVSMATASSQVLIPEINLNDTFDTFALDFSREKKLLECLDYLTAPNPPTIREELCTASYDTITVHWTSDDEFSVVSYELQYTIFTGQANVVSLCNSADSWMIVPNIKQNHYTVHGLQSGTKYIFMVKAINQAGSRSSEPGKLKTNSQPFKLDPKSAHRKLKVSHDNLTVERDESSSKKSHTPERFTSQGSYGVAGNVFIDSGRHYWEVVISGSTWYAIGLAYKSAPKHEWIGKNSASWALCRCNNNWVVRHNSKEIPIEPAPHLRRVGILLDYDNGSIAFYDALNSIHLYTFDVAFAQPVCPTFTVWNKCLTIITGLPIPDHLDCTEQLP
# Experiment: affinity purification with mass spectrometry; MID1-FLAG expressed in HEK293T, lysate in TKM buffer (20 mM Tris pH 7.4, 100 mM KCl, 5 mM MgCl2, 0.5% NP40, 1 mM DTT), anti-FLAG M1 agarose overnight at 4 °C, 6 washes; untransfected cells as control; Q-Exactive, MaxQuant, 1% FDR
row,Substance,binding
1,ATP-dependent RNA helicase DDX3X (from UniProt O00571 1-662),binds
2,Insulin-like growth factor 2 mRNA-binding protein 3 (from UniProt O00425 1-579),binds
3,Eukaryotic translation initiation factor 3 subunit E (from UniProt P60228 1-445),binds
4,RNA-binding protein 10 (from UniProt P98175 1-930),binds
5,Exosome complex component RRP45 (from UniProt Q06265 1-439),binds
6,26S proteasome non-ATPase regulatory subunit 4 (from UniProt P55036 1-377),binds
7,Microtubule-associated protein 1B (from UniProt P46821 1-2468),binds
8,Replication factor C subunit 3 (from UniProt P40938 1-356),binds
9,Splicing factor 3B subunit 1 (from UniProt O75533 1-1304),binds
10,26S proteasome non-ATPase regulatory subunit 2 (from UniProt Q13200 1-908),binds
11,Cleavage and polyadenylation specificity factor subunit 6 (from UniProt Q16630 1-551),binds
12,Gem-associated protein 4 (from UniProt P57678 1-1058),binds
13,Eukaryotic translation initiation factor 3 subunit I (from UniProt Q13347 1-325),binds
14,26S protease regulatory subunit 8 (from UniProt P62195 1-406),binds
15,26S proteasome non-ATPase regulatory subunit 12 (from UniProt O00232 1-456),binds
16,26S protease regulatory subunit 4 (from UniProt P62191 1-440),binds
17,Serine/arginine-rich splicing factor 1 (from UniProt Q07955 1-248),binds
18,Small nuclear ribonucleoprotein Sm D3 (from UniProt P62318 1-126),binds
19,Eukaryotic translation initiation factor 3 subunit D (from UniProt O15371 1-548),binds
20,SRSF protein kinase 1 (from UniProt Q96SB4 1-655),binds
21,Coronin-1C (from UniProt Q9ULV4 1-474),binds
22,Protein furry homolog-like (from UniProt O94915 1-3013),binds
23,Eukaryotic translation initiation factor 3 subunit J (from UniProt O75822 1-258),binds
24,BTB/POZ domain-containing protein KCTD17 (from UniProt Q8N5Z5 1-314),binds

row,Substance,binding
1,Eukaryotic translation initiation factor 3 subunit C (from UniProt Q99613 1-913),binds
2,Double-stranded RNA-binding protein Staufen homolog 1 (from UniProt O95793 1-577),binds
3,Nuclease-sensitive element-binding protein 1 (from UniProt P67809 1-324),binds
4,Heterogeneous nuclear ribonucleoprotein Q (from UniProt O60506 1-623),binds
5,Eukaryotic translation initiation factor 3 subunit K (from UniProt Q9UBQ5 1-218),binds
6,BTB/POZ domain-containing protein KCTD5 (from UniProt Q9NXV2 1-234),binds
7,26S protease regulatory subunit 6A (from UniProt P17980 1-439),binds
8,Eukaryotic translation initiation factor 3 subunit F (from UniProt O00303 1-357),binds
9,"Proline-, glutamic acid- and leucine-rich protein 1 (from UniProt Q8IZL8 1-1130)",binds
10,Eukaryotic translation initiation factor 3 subunit L (from UniProt Q9Y262 1-564),binds
11,LIM domain and actin-binding protein 1 (from UniProt Q9UHB6 1-759),binds
12,40S ribosomal protein S30 (human (endogenous in HEK293T)),binds
13,Zinc finger CCCH-type antiviral protein 1 (from UniProt Q7Z2W4 1-902),binds
14,26S protease regulatory subunit 6B (from UniProt P43686 1-418),binds
15,Cell division cycle 5-like protein (from UniProt Q99459 1-802),binds
16,Putative pre-mRNA-splicing factor ATP-dependent RNA helicase DHX15 (from UniProt O43143 1-795),binds
17,"Spectrin beta chain, non-erythrocytic 1 (from UniProt Q01082 1-2364)",binds
18,Protein arginine N-methyltransferase 5 (from UniProt O14744 1-637),binds
19,Small nuclear ribonucleoprotein Sm D2 (from UniProt P62316 1-118),binds
20,U2 snRNP-associated SURP motif-containing protein (from UniProt O15042 1-1029),binds
21,Ribosome biogenesis protein BMS1 homolog (from UniProt Q14692 1-1282),binds
22,Eukaryotic initiation factor 4A-I (from UniProt P60842 1-406),binds
23,E3 ubiquitin-protein ligase UBR5 (from UniProt O95071 1-2799),binds
24,60S acidic ribosomal protein P2 (from UniProt P05387 1-115),binds

row,Substance,binding
1,Vimentin (from UniProt P08670 1-466),binds
2,Protein PRRC2C (from UniProt Q9Y520 1-2896),binds
3,"RNA-binding motif protein, X chromosome (from UniProt P38159 1-391)",binds
4,Splicing factor 3B subunit 3 (from UniProt Q15393 1-1217),binds
5,Tight junction protein ZO-2 (from UniProt Q9UDY2 1-1190),binds
6,U5 small nuclear ribonucleoprotein 200 kDa helicase (from UniProt O75643 1-2136),binds
7,Serine/threonine-protein kinase MARK2 (from UniProt Q7KZI7 1-788),binds
8,T-complex protein 1 subunit epsilon (from UniProt P48643 1-541),binds
9,Activating signal cointegrator 1 complex subunit 3 (from UniProt Q8N3C0 1-2202),binds
10,26S protease regulatory subunit 10B (from UniProt P62333 1-389),binds
11,Nucleolar GTP-binding protein 2 (from UniProt Q13823 1-731),binds
12,Polyadenylate-binding protein 1 (from UniProt P11940 1-636),binds
13,Eukaryotic translation initiation factor 3 subunit G (from UniProt O75821 1-320),binds
14,Interleukin enhancer-binding factor 2 (from UniProt Q12905 1-390),binds
15,Probable ATP-dependent RNA helicase DDX5 (from UniProt P17844 1-614),binds
16,Nicotinamide phosphoribosyltransferase (from UniProt P43490 1-491),binds
17,Methylosome protein 50 (from UniProt Q9BQA1 1-342),binds
18,Myosin-10 (from UniProt P35580 1-1976),binds
19,Methylosome subunit pICln (from UniProt P54105 1-237),binds
20,Probable ATP-dependent RNA helicase DDX17 (from UniProt Q92841 1-729),binds
21,Tubulin beta-4A chain (from UniProt P04350 1-444),binds
22,Nuclear cap-binding protein subunit 1 (from UniProt Q09161 1-790),binds

# Results are given in words; binding and its absence hold for the method and conditions named. In cells and extracts the contact can be indirect. These calls come from enrichment with a bait or labelling near it, and not all partners need be listed.
